Experimental data from PubChem BioAssay AID2685 (National Center for Advancing Translational Sciences (NCATS), 2010).
The whole screen tested about 320,000 compounds, of which about 2,100 (0.66%) were called active. The shares of active, inactive and inconclusive entries below differ from those in the screen. The call rests on the fitted dose curve; in most records, active means well fitted inhibition curve with a large enough effect in the signal ratio, with a control signal flat (not every such curve was filed as active); inconclusive means small, poorly fitted or top-dose-only effect, or effect the other way, or a change in a side signal; inactive means flat fitted curve, though single readings scatter; the % refers to the signal ratio. Potencies of inconclusive entries are doubtful fits and often do not repeat.

Assay: qHTS Assay for Lipid Storage Modulators in Drosophila S3 Cells
Details: BODIPY lipid droplet fluorescence, 18-24 h, cells fed with added oleic acid; lipid storage change, negative = inhibition: at 46.1 µM (top of the series) unless noted
Outline: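 Drosophila S3 cells got compounds at several concentrations plus oleic acid (400 uM solution). Laser-scanning cytometry with 488 nm excitation read lipid droplets at 500-530 nm and cells at 575-640 nm. Percent activity was relative to 20 uM Triacsin C.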
On the % scale 0 is the no-effect control and ±100 the full control effect; potency means the concentration at half of the fitted maximal effect.

Structure (SMILES)	Potency	lipid storage change, negative = inhibition
Cc1cc(C)c(NC(=O)CC(=O)c2ccccc2)c(Cl)c1	inconclusive: 29.1 µM [rising, single point]	–
COc1cccc(-c2ccc3ncnc(NCc4cccs4)c3c2)c1	–	inconclusive: -22.7%
CCC(CC)c1nnc(NC(=O)COc2ccc3c(c2)OCO3)s1	–	inconclusive: 22.7%
Cc1ccc(-c2nnc(CSc3nnc(COc4cccc5ccccc45)n3-c3ccccc3)o2)cc1	–	inconclusive: 375%
Cc1ccnc2nc(C(=O)NC3=NCCS3)nn12	–	inconclusive: 10.3%
Cc1ccc(NC(=O)CCCSc2ccccc2)cc1S(=O)(=O)N1CCOCC1	–	inconclusive: 33.3%
COc1ccc2nc(NC(=O)C(NS(=O)(=O)c3cccc4nsnc34)C(C)C)sc2c1 (stereo not drawn)	–	inconclusive: 33.8%
COc1ccc(C(=O)Oc2ccc(/C=N/O)cc2)cc1	–	inconclusive: -6.13%
COc1ccccc1C(=O)C1CCCN(C(=O)CCn2cnnn2)C1 (stereo not drawn)	–	inconclusive: -5.88%
O=C(NCC1CCCO1)C1CCCN1C(=O)NC1CCCCC1 (stereo not drawn)	–	inconclusive: -12%
O=C(CSc1ccccc1)NCc1cccnc1	inconclusive: 0.0046 µM [activator, full curve, poor fit]	–
COc1ccc(CN2CC(=O)N(c3ccc(C)cc3C)C2=S)cc1OC	–	inactive
Cc1occc1C(=O)N1CCN(c2ccc(Cl)cc2)CC1	–	inconclusive: 16.7%
CCOC(=O)CSc1nnc(NCC(=O)OC)c(=O)[nH]1	–	inconclusive: -20.4%
Cc1ccc(S(=O)(=O)N(Cc2cc3ccc(C)cc3[nH]c2=O)c2ccccc2)cc1	–	inconclusive: -11.6%
O=C(CCSc1ccc(Cl)cc1)c1cccs1	–	inconclusive: -26.1%
CCn1c2ccc(OC)cc2c2nc3ccccc3nc21	–	inconclusive: -48.1%
CCc1c(C)c2ccc(OC(C)C(=O)NC(Cc3c[nH]c4ccc(O)cc34)C(=O)O)c(C)c2oc1=O (stereo not drawn)	–	inconclusive: -10.4%
CCCCNC(=S)Nc1cc(S(=O)(=O)N2CCCCC2)ccc1C	inconclusive: 0.092 µM [activator, partial curve, poor fit]	–
NNC(=O)C(Cc1ccc(O)cc1)N1Cc2ccccc2C1=O (stereo not drawn)	–	inconclusive: 9.85%
CCCCC(=O)Nc1cccn2ncnc12	–	inconclusive: -47.6%
O=[N+]([O-])c1ccc(-c2cc(-c3ccc(Cl)cc3)n[nH]2)cc1	–	inconclusive: 10.3%
COc1ccccc1Nc1c([N+](=O)[O-])cc(C)cc1[N+](=O)[O-]	–	inconclusive: -27%
Cc1ccc(NC(=O)CSc2nc3sc(C)cc3c(=O)n2C)cc1	–	inconclusive: 138%
O=[N+]([O-])c1ccc(NC(=S)N2CCCC2)cc1	–	inconclusive: 41.1%
O=C(Cn1cncn1)c1ccccc1Br	–	inconclusive: 10.1%

Structure (SMILES)	Potency	lipid storage change, negative = inhibition
CCOc1ccc(NC(=O)CSc2nnc(CCNC(=O)c3ccc(OC)cc3)n2CC)cc1	–	inconclusive: -3.76%
Cc1ccccc1OCCn1cnc2cc([N+](=O)[O-])ccc2c1=O	–	inconclusive: 51%
COc1ccc(Cl)cc1NC(=O)CN(C)C(=O)CCSc1ccc(C)cc1	–	inconclusive: -29.2%
COc1cc(OC)c(OC)cc1CN1CCC(O)CC1	–	inconclusive: -16.8%
CCOC(=O)C(CCc1nnc(N)s1)C(=O)OCC	inconclusive: 29.1 µM [rising, single point]	–
O=C(c1ccccc1)N1CCN(C(=O)C2CC2)CC1	inconclusive: 0.0052 µM [falling, full curve, poor fit]	–
COc1ccc(/C=C/C(O)=C(\C#N)c2nnc(N3CCOCC3)n2-c2ccccc2)cc1OC	–	inconclusive: 31.1%
O=C(O)c1ccc(Nc2nc(-c3cccnc3)cs2)cc1	–	inconclusive: -31.6%
O=[n+]1c2c(n([O-])c3ccccc31)CCC2	–	inconclusive: -4.46%
CC(C)NC(=O)C1CCN(C2CCN(C(=O)/C=C/c3cccs3)CC2)CC1	inconclusive: 5.8 µM [falling, full curve]	–
Cc1csc(=O)n1CCC(=O)OCc1nnc(-c2ccc([N+](=O)[O-])cc2)o1	–	inconclusive: 4.98%
Cc1ccc2nc(-c3ccccn3)c(NC3CCCC3)n2c1	–	inconclusive: -13.5%
CCCOc1ccc(C(CC(=O)O)NC(=O)C23CC4CC(CC(C4)C2)C3)cc1 (stereo not drawn)	inconclusive: 0.461 µM [falling, partial curve, poor fit]	–
CCOc1ccc(NC(=O)CSc2nc3nc4c(cc3c(=O)n2CC)COC(C)(C)C4)cc1	–	inconclusive: 1.08%
Cc1nn(-c2ccccc2)c(C)c1/C=N/NC(=O)CSc1nnc(-c2ccccc2)n1-c1ccc(Cl)cc1	–	inconclusive: -64.6%
CCn1c(COc2cccc3cccnc23)nnc1SCC(=O)O	inconclusive: 0.82 µM [falling, full curve, poor fit]	–
Cc1noc(C)c1CSCC(=O)NCCN1C(=O)S/C(=C\c2ccccc2F)C1=O	–	inconclusive: 13.1%
CCOC(=O)c1c(NC(=O)CN2CCOCC2)sc(C(=O)NC)c1C	inconclusive: 4.11 µM [falling, single point]	–
CCCC(=O)Nc1c(-c2ccccc2Cl)c(=O)c2ccccc2n1C	–	inactive
COc1cc(/C=N/NC(=O)c2ccc(CSc3nncn3C)cc2)cc(OC)c1O	inconclusive: 1.3 µM [falling, partial curve, poor fit]	–
COc1ccc(S(=O)(=O)N2CCCC2CNC(=O)C(=O)NC2CC2)cc1 (stereo not drawn)	inconclusive: 4.11 µM [activator, partial curve, poor fit]	–
COc1ccc(-n2ncc3c(NCc4ccco4)ncnc32)cc1	–	inconclusive: 5.54%
CC(=O)Nc1ccc(NC(=O)COC(=O)[C@@H](NC(=O)c2ccc(F)cc2)C(C)C)cc1	–	inconclusive: 18.4%
COc1ccc(OC)c(NC(=O)CSc2nnc(CNc3ccc(F)cc3)o2)c1	inconclusive: 0.103 µM [activator, full curve]	–
CN(C)C(=S)NC(C)(C)C	–	inconclusive: -8.65%
COc1cc(Nc2ccccc2Cl)c([N+](=O)[O-])nc1[N+](=O)[O-]	inconclusive: 32.6 µM [falling, single point]	–

Some values from above.
Value for CC(=O)Nc1ccc(NC(=O)COC(=O)[C@@H](NC(=O)c2ccc(F)cc2)C(C)C)cc1 under lipid storage change, negative = inhibition: inconclusive: 18.4%
Value for Cc1nn(-c2ccccc2)c(C)c1/C=N/NC(=O)CSc1nnc(-c2ccccc2)n1-c1ccc(Cl)cc1 under lipid storage change, negative = inhibition: inconclusive: -64.6%
Value for Cc1csc(=O)n1CCC(=O)OCc1nnc(-c2ccc([N+](=O)[O-])cc2)o1 under lipid storage change, negative = inhibition: inconclusive: 4.98%

Further structures.

Structure (SMILES)	Potency	lipid storage change, negative = inhibition
COC(=O)Cc1cc(=O)[nH]c(/N=C(\N)Nc2ccc(C(C)C)cc2)n1	–	inconclusive: 34%
CC(Nc1cccnc1)=C(C#N)C#N	inconclusive: 0.116 µM [activator, single point]	–
CCOC(=O)CC1(NC(=O)c2cc(COc3ccc(F)c(F)c3)on2)CCCCC1	–	inconclusive: -91.2%
Cc1ccc(-c2cc(NC(=O)CCl)n(-c3ccccc3)n2)cc1	–	inconclusive: 11.3%
COc1ccc(OC)c(N(CC(=O)N2CCc3ccccc3C2)S(C)(=O)=O)c1	–	inconclusive: -1.29%
Cc1nc(SC(C)C)[nH]c(=O)c1Cc1ccccc1	–	inconclusive: 7.03%
Cc1cc(C)n(C(=O)c2ccc(C)c(S(=O)(=O)N3CCCCC3)c2)n1	inconclusive: 2.59 µM [activator, partial curve]	–
COc1ccc(-c2cc3nc(C4CCN(C(=O)OC(C)(C)C)CC4)c(C(=O)O)cn3n2)cc1	–	inconclusive: 13.6%
O=c1oc(-c2cccc([N+](=O)[O-])c2)nc2ccccc12	–	inactive
COc1ccc(Cn2c(=O)[nH]c3cc(C(=O)N4CCN(c5ccccc5OC)CC4)ccc3c2=O)cc1	–	inconclusive: 33.8%
CCOC(=O)c1c(NC2OC(=O)c3c2ccc(OC)c3OC)sc(C(=O)OC(C)(C)C)c1C (stereo not drawn)	–	inconclusive: 13.3%
COc1ccc(C(O)(C(C)C)C(CN2CCOCC2)c2ccc(Cl)cc2)cc1 (stereo not drawn)	inconclusive: 23.1 µM [activator, single point]	–
Cc1[nH]c2ccccc2c1C(=O)C(=O)NCc1ccco1	inconclusive: 6.51 µM [cytotoxic, single point]	–
CCCCNC(=O)N(O)C1N(/N=C/c2cccnc2)C(=S)SC1(C)C (stereo not drawn)	–	inconclusive: 29.8%
Cc1cc(Br)ccc1NC(=O)CN(C)C(=O)CCSc1ccc(F)cc1	–	inconclusive: 12.9%
Cn1c(/C=C/c2cccc([N+](=O)[O-])c2)c([N+](=O)[O-])c(=O)n(C)c1=O	inconclusive: 29.1 µM [falling, single point]	–
COc1ccc(CCN(C(=O)C(F)(F)F)C(C(=O)NC2CCCCC2)c2ccc(C)s2)cc1OC (stereo not drawn)	–	inconclusive: -32%
O=C(NCCCN1CCOCC1)c1cccs1	–	inconclusive: -63.9%
COc1ccc(Cl)cc1S(=O)(=O)n1nnc2ccccc21	–	inconclusive: -30.6%
CC1Cc2ccccc2N1S(=O)(=O)c1cccc(C(=O)N2CC(=O)Nc3ccccc32)c1 (stereo not drawn)	inconclusive: 7.31 µM [activator, partial curve]	–
Cc1cccc2sc(NC(=O)CN3C(=O)NC4(CCCC4)C3=O)nc12	inconclusive: 8.2 µM [activator, partial curve]	–
COc1ccc2c(C)cc(=S)[nH]c2c1	–	inconclusive: 72.2%
Cc1cc(C)c(S(=O)(=O)N(C)CC(=O)NCC2CCCO2)c(C)c1 (stereo not drawn)	inconclusive: 29.1 µM [activator, single point]	–
O=C(NCCCN1CCCC1=O)c1cccc(S(=O)(=O)Nc2ccccc2Cl)c1	–	inconclusive: 22.5%
COc1ccc(-c2cc(C(F)(F)F)nc(-n3cncn3)n2)cc1	inconclusive: 3.66 µM [activator, full curve]	–
C/C(=N\Nc1nncc2ccccc12)c1ccc(Cl)c([N+](=O)[O-])c1	–	inconclusive: -100%
